No constants are given. Whether binding was seen depends on the method and setting. In cells and extracts the contact can be indirect. Binding can be weak; no strength is given. Sequences can lack the tags named with a protein.
Target: T1, CMTM6-HA (UniProt Q9NX76)
T1 sequence: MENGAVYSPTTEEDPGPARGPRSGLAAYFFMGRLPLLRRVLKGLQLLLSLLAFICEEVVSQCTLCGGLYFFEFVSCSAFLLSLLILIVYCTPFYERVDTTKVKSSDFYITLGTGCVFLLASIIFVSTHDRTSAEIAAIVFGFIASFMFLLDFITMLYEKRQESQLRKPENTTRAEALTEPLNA
Assay: co-IP; HCT116 cells coexpressing CMTM6-HA and Rab11-FLAG; lysis buffer with 0.5% NP-40; anti-HA (12CA5) antibody and Protein G Sepharose beads pull down CMTM6-HA; WB for Glut1 and Rab11-FLAG

binding: binds
Substance: Rab11-FLAG

— publication PMC11447025
